We go through three compounds from PubChem BioAssay AID250 (DTP/NCI, 2004).

For assay [1], the system named is BDF1 mice, L1210 leukemia sc. Put plainly: NCI In Vivo Anticancer Drug Screen. Data for tumor model L1210 Leukemia (subcutaneous) in B6D2F1 (BDF1) mice. Conditions: T/C endpoint: median survival time, higher T/C = longer survival. The method, boiled down:
(§1)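 Read-out: T/C ratio, i.e. survival or tumor size in treated mice over that in vehicle-treated controls, from mice bearing transplantable tumors.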

Assay [2] deals with BDF1 mice, L1210 leukemia sc, survival T/C. The description is as above. Conditions: T/C endpoint: median survival time, higher T/C = longer survival. The method, boiled down:
as §1

[3] abbreviates: dose: 10.0 mg/kg/injection, schedule: Q03HX008 (sc), vehicle: saline, evaluated on day 60.
Setting [4] is: dose: 20.0 mg/kg/injection, schedule: Q03HX008 (sc), vehicle: saline, evaluated on day 60.
Where [5] appears, read: dose: 40.0 mg/kg/injection, schedule: Q03HX008 (sc), vehicle: saline, evaluated on day 60.
Where [6] appears, read: dose: 50.0 mg/kg/injection, schedule: Q01DX001 (sc), vehicle: saline, evaluated on day 60.
Setting [7] is: dose: 100.0 mg/kg/injection, schedule: Q01DX001 (sc), vehicle: saline, evaluated on day 60.
Setting [8] is: dose: 3.0 mg/kg/injection, schedule: Q03HX008 (sc), vehicle: water.

The list does not hold the whole screen: it is rich in T/C values a quarter to a half above the control, in often repeated tests (any T/C) and in doses without a T/C. Other doses and runs of a compound stand elsewhere. T/C: endpoint of the treated group in % of that of the vehicle group. Some doses have a count of surviving animals in place of a T/C: the source holds a T/C of zero for them, seemingly a mark for toxic or unscored doses. Some doses without a T/C left all or most animals alive at the check, yet need not have been tolerated: survival well below the control is almost never listed, so the zero probably covers shortened survival too. For some of these results: Counts of survivors are from the toxicity check (mostly the fifth day) where no day follows; animals may have died later. Schedule codes are those of the source, taken here to give the interval after Q, in days (D) or hours (H), and the number of doses after X. Some doses were run more than once; their values stand side by side, smallest first. Additions like (4×) say how often a value occurs here. Some schedule codes hold Z or #, which are not explained here. For survival time, this PubChem deposit counts one and a half times the control or more as active, and values a quarter to a half above the control carry no call in these data; other NCI protocols may use other cut-offs. Some T/C values carry the count of animals alive at the toxicity check (mostly the fifth day); without a count, all were alive then.

On to `CC1CCC(NC(=O)N(CCCl)N=O)CC1` (configuration not stated), for which the T/C is 135 % of control in assay [1] (dose: 5.0 mg/kg/injection, schedule: Q03HX008 (sc), vehicle: saline); 130 % of control [7 of 8 alive] in assay [1] (setting [3]); 125 % of control in assay [1] (dose: 20.0 mg/kg/injection, schedule: Q03HX008 (sc), vehicle: saline, evaluated on day 7); 133 % of control in assay [1] (dose: 20.0 mg/kg/injection, schedule: Q03HX008 (sc), vehicle: saline, evaluated on day 9); 127 % of control in assay [1] (setting [4]); 130 % of control [7 of 8 alive] in assay [1] (setting [5]). Further, the T/C was 140 % of control [7 of 8 alive] in assay [1] (setting [6]); 142 % of control in assay [1] (dose: 100.0 mg/kg/injection, schedule: Q01DX001 (sc), vehicle: saline, evaluated on day 9); 135 % of control [6 of 8 alive] in assay [1] (setting [7]); 638 % of control in assay [2] (dose: 10.0 mg/kg/injection, schedule: Q03HX008 (sc), vehicle: saline, evaluated on day 7); 193 % of control in assay [2] (dose: 10.0 mg/kg/injection, schedule: Q03HX008 (sc), vehicle: saline, evaluated on day 9); 666 % of control in assay [2] (setting [3]). The T/C in assay [2] (setting [4]) was 175 % of control [6 of 8 alive]; in assay [2] (dose: 25.0 mg/kg/injection, schedule: Q01DX001 (sc), vehicle: saline, evaluated on day 7), 121 % of control; in assay [2] (dose: 25.0 mg/kg/injection, schedule: Q01DX001 (sc), vehicle: saline, evaluated on day 9), 115 % of control; in assay [2] (dose: 25.0 mg/kg/injection, schedule: Q01DX001 (sc), vehicle: saline, evaluated on day 60), 110 [6 of 8 alive] and 122 % of control; in assay [2] (dose: 40.0 mg/kg/injection, schedule: Q03HX008 (sc), vehicle: saline, evaluated on day 7), 99 % of control; in assay [2] (dose: 40.0 mg/kg/injection, schedule: Q03HX008 (sc), vehicle: saline, evaluated on day 9) it was 120 % of control. Moreover, the T/C in assay [2] (setting [5]) was 100 % of control; in assay [2] (dose: 50.0 mg/kg/injection, schedule: Q01DX001 (sc), vehicle: saline, evaluated on day 7) it was 244 % of control; in assay [2] (dose: 50.0 mg/kg/injection, schedule: Q01DX001 (sc), vehicle: saline, evaluated on day 9), 153 % of control; in assay [2] (setting [6]) it was 222 % of control; in assay [2] (dose: 100.0 mg/kg/injection, schedule: Q01DX001 (sc), vehicle: saline, evaluated on day 7), 636 % of control; in assay [2] (setting [7]), 666 % of control. Moreover, the T/C in assay [2] (dose: 200.0 mg/kg/injection, schedule: Q01DX001 (sc), vehicle: saline, evaluated on day 7) was 108 % of control; in assay [2] (dose: 200.0 mg/kg/injection, schedule: Q01DX001 (sc), vehicle: saline, evaluated on day 9), 608 % of control; in assay [2] (dose: 200.0 mg/kg/injection, schedule: Q01DX001 (sc), vehicle: saline, evaluated on day 60), 111 and 490 % of control.

In the case of `N=C(N)SCc1c2ccccc2c(CSC(=N)N)c2ccccc12`, the T/C in assay [1] (dose: 100.0 mg/kg/injection, schedule: Q01DX009 (sc), vehicle: steroid suspending solution) was 140 % of control; in assay [1] (dose: 250.0 mg/kg/injection, schedule: Q01DX001 (sc), vehicle: steroid suspending solution), 140 % of control. The survivor count in assay [2] (dose: 39.0 mg/kg/injection, schedule: Q01DX Z (sc), vehicle: methylcellulose (MC)) was 4 of 8; in assay [2] (dose: 65.0 mg/kg/injection, schedule: Q01DX Z (sc), vehicle: methylcellulose (MC)) it was 0 of 8; in assay [2] (dose: 100.0 mg/kg/injection, schedule: Q01DX009 (ip), vehicle: steroid suspending solution), 8 of 8; in assay [2] (dose: 108.0 mg/kg/injection, schedule: Q01DX Z (sc), vehicle: methylcellulose (MC)) it was 2 of 8; in assay [2] (dose: 180.0 mg/kg/injection, schedule: Q01DX Z (sc), vehicle: methylcellulose (MC)), 3 of 8; in assay [2] (dose: 200.0 mg/kg/injection, schedule: Q01DX009 (ip), vehicle: steroid suspending solution), 6 of 8. In addition, the survivor count in assay [2] (dose: 200.0 mg/kg/injection, schedule: Q04DX003 (ip), vehicle: steroid suspending solution) is recorded as 7 of 8; in assay [2] (dose: 300.0 mg/kg/injection, schedule: Q01DX Z (sc), vehicle: methylcellulose (MC)), 2 of 8; in assay [2] (dose: 400.0 mg/kg/injection, schedule: Q04DX003 (ip), vehicle: steroid suspending solution), 3 of 8; in assay [2] (dose: 500.0 mg/kg/injection, schedule: Q01DX001 (ip), vehicle: steroid suspending solution), 8 of 8; in assay [2] (dose: 1000.0 mg/kg/injection, schedule: Q01DX001 (ip), vehicle: steroid suspending solution) it was 5 of 8.

`COc1cccc2c1C(=O)c1c(O)c3c(c(O)c1C2=O)C[C@@](O)(C(=O)CO)C[C@@H]3OC1CC(N)C(O)C(C)O1` (some centres not stated): the T/C in assay [1] (dose: 1.08 mg/kg/injection, schedule: Q03HX008 (sc), vehicle: water, evaluated on day 31) is 133 % of control; in assay [1] (dose: 1.8 mg/kg/injection, schedule: Q03HX008 (sc), vehicle: water, evaluated on day 23), 127 % of control; in assay [1] (dose: 8.4 mg/kg/injection, schedule: Q01DX001 (iv), vehicle: water), 125 % of control; in assay [1] (dose: 8.4 mg/kg/injection, schedule: Q01DX001 (sc), vehicle: water), 133 % of control; in assay [1] (dose: 8.4 mg/kg/injection, schedule: Q04DX003 (sc), vehicle: water), 138 % of control; in assay [1] (dose: 14.0 mg/kg/injection, schedule: Q01DX001 (iv), vehicle: water, evaluated on day 5), 143 % of control. For the same compound, the T/C was 138 % of control in assay [1] (dose: 14.0 mg/kg/injection, schedule: Q01DX001 (iv), vehicle: water, evaluated on day 34); 111 % of control in assay [2] (dose: 0.65 mg/kg/injection, schedule: Q03HX008 (sc), vehicle: water, evaluated on day 23); 100 % of control in assay [2] (dose: 0.65 mg/kg/injection, schedule: Q03HX008 (sc), vehicle: water, evaluated on day 30); 122 % of control in assay [2] (dose: 0.65 mg/kg/injection, schedule: Q03HX008 (sc), vehicle: water, evaluated on day 31); 100 % of control in assay [2] (dose: 0.65 mg/kg/injection, schedule: Q03HX008 (sc), vehicle: water, evaluated on day 35); 111 % of control in assay [2] (dose: 1.08 mg/kg/injection, schedule: Q03HX008 (sc), vehicle: water, evaluated on day 23). For the same compound, the T/C is 100 % of control in assay [2] (dose: 1.08 mg/kg/injection, schedule: Q03HX008 (sc), vehicle: water, evaluated on day 30); 105 % of control in assay [2] (dose: 1.08 mg/kg/injection, schedule: Q03HX008 (sc), vehicle: water, evaluated on day 35); 122 % of control in assay [2] (dose: 1.8 mg/kg/injection, schedule: Q03HX008 (sc), vehicle: water, evaluated on day 30); 116 % of control in assay [2] (dose: 1.8 mg/kg/injection, schedule: Q03HX008 (sc), vehicle: water, evaluated on day 31); 110 % of control in assay [2] (dose: 1.8 mg/kg/injection, schedule: Q03HX008 (sc), vehicle: water, evaluated on day 35); 94 % of control in assay [2] (setting [8]). The survivor count in assay [2] (dose: 1.8 mg/kg/injection, schedule: Q03HX008 (ip), vehicle: water) is 8 of 8; in assay [2] (dose: 3.0 mg/kg/injection, schedule: Q01DX005 (ip), vehicle: water) it was 8 of 8; in assay [2] (dose: 3.0 mg/kg/injection, schedule: Q03HX008 (ip), vehicle: water) it was 7 of 8 (2×) and 10 of 10; in assay [2] (setting [8]), 10 of 10 (2×) and 8 of 8; in assay [2] (dose: 5.0 mg/kg/injection, schedule: Q01DX005 (ip), vehicle: water), 8 of 8; in assay [2] (dose: 5.0 mg/kg/injection, schedule: Q01DX005 (sc), vehicle: water), 8 of 8. The survivor count in assay [2] (dose: 16.0 mg/kg/injection, schedule: Q04DX003 (ip), vehicle: saline) is on record as 6 of 10; in assay [2] (dose: 23.0 mg/kg/injection, schedule: Q01DX001 (iv), vehicle: water), 5 of 8; in assay [2] (dose: 23.0 mg/kg/injection, schedule: Q01DX001 (sc), vehicle: water) it was 9 of 10.
